Assay results: article PMC7819943, “Rice protein-binding microarrays: a tool to detect cis-acting elements near promoter regions in rice”
The list shows a part of the results.

These sequences were tested against T1, OsSMF1 (Oryza sativa, UniProt Q6ZLB0 1-436) (assay: protein-binding microarray (RPBM); PBS, 2% BSA, 51.3 ng/ul salmon testes DNA, 50 uM zinc acetate, 200 nM TF, 25 C, 1 h; high values mean tight binding). Conditions: protein: recombinant; tags: N-terminal polyhistidine and DsRed monomer fusion (pET32a); chain copies: 2; label: CyDye5-dUTP incorporated in the synthesized complementary strand; 3' TTTTT single-stranded linker to array surface; dsDNA, one strand shown.
T1 sequence: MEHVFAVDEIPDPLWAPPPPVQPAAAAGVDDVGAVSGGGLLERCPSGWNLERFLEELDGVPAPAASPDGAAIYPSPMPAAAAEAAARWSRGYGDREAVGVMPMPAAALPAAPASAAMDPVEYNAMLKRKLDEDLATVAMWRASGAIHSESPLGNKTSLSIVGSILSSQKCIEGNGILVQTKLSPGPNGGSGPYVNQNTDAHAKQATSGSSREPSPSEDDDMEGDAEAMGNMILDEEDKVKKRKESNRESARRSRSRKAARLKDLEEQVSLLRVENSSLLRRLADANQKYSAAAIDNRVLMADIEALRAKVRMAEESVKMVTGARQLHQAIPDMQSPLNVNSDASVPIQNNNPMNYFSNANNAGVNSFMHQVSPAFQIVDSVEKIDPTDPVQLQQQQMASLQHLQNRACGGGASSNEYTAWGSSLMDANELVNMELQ
Method in brief: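 Binding signal is defined as the fluorescence intensity of each feature in arbitrary units, read on an Axon 4000B scanner. Transcription factors with N-terminal polyhistidine and DsRed fusions came from E. coli BL21-CodonPlus and were purified on Ni–NTA. They were incubated at 200 nM for 1 h at 25 °C on a custom Agilent array that had been made double-stranded with Cy5-dUTP, with 50 µM zinc acetate present, and the array was washed.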

| Sequence | binding signal |
| --- | --- |
| GGCCTACTATACTTGCCAAGCGAGAGAGAGACCCCAGCACCGGAGTCACCTAGTGCAG | 34400 fluorescence intensity (a.u.) |
| CTTCTTCTTCCTCGCTTCCTTCCTCCACCTCCACGCGGCGCGGAGTCACCTAGTGCAG | 5530 fluorescence intensity (a.u.) |
| GTCTGGTTTGCCAACCGTGATCATCCAGTTGGAGAGAATGCGGAGTCACCTAGTGCAG | 3770 fluorescence intensity (a.u.) |
| CGTGTACGCAACCTCCGCTTCATCACGCCCGTTCGTCGCGCGGAGTCACCTAGTGCAG | 3440 fluorescence intensity (a.u.) |
| CGTTTCAATCTGTTGTGGTGCTTGCATGCACAAGCCACCACGGAGTCACCTAGTGCAG | 3190 fluorescence intensity (a.u.) |
| GTGTGTCGATGTTCGTTGTCACGTCTACGTGGACACATGACGGAGTCACCTAGTGCAG | 9960 fluorescence intensity (a.u.) |
| CAAGAAGTTCTGACTGGATCAAAACCCAGAAGGTGTTCCCCGGAGTCACCTAGTGCAG | 4730 fluorescence intensity (a.u.) |
| GTCCGAATACCCCATATGACACCCTATATAATACCTGACGCGGAGTCACCTAGTGCAG | 3530 fluorescence intensity (a.u.) |
| TACAGGAACAGCAATAGCAGTAGTAAATACTAGCTCAGGCCGGAGTCACCTAGTGCAG | 3380 fluorescence intensity (a.u.) |
| CTTTAATATGTGGACTCATGATTCTTACGTGTCTGTGACACGGAGTCACCTAGTGCAG | 31500 fluorescence intensity (a.u.) |
| ATGCCATGTCCTCGTCCTAGGTGAAACAGCCACATCATCTCGGAGTCACCTAGTGCAG | 6320 fluorescence intensity (a.u.) |
| ACAAGCGCGATATAGACCTCGACCTGTCTCTAGTGACTTGCGGAGTCACCTAGTGCAG | 3180 fluorescence intensity (a.u.) |
| AACCCAAGTTGCCTGGCGAAACCGCGAAACGCCGCGGATGCGGAGTCACCTAGTGCAG | 3210 fluorescence intensity (a.u.) |
| GCCACCGCCGCGGCCGCGCCACCTCACCGGCGGCGCCGGTCGGAGTCACCTAGTGCAG | 4880 fluorescence intensity (a.u.) |
| TGGGGCCACCACCACAAGCCCACGCAGGCAGGTGGGCCCCCGGAGTCACCTAGTGCAG | 3280 fluorescence intensity (a.u.) |
| TTAAATTTTAGATACTCGTGGCATGCTTTTCAAACTGCTACGGAGTCACCTAGTGCAG | 8480 fluorescence intensity (a.u.) |
| ACCTTTTGCACTATACACAGCCACGTGGCTTGCCAGCGTGCGGAGTCACCTAGTGCAG | 24700 fluorescence intensity (a.u.) |
| CCTGACGCCGCGGTAGCTCAGGCAAGCGGCCTCAACCTGGCGGAGTCACCTAGTGCAG | 36800 fluorescence intensity (a.u.) |
| AAGGCTCGTATGACTCATCCTGGATGAGGCTAGCCTGGATCGGAGTCACCTAGTGCAG | 6540 fluorescence intensity (a.u.) |
| TGGCGATCGTAAGGTACAGTCTACAGACCAGTTGGGGTATCGGAGTCACCTAGTGCAG | 3170 fluorescence intensity (a.u.) |
| CCGCAAGTCGTGGAAGCAGCGCACGGACATGTACATGCGGCGGAGTCACCTAGTGCAG | 4440 fluorescence intensity (a.u.) |

Some of the entries above in another layout.
Sequence | binding signal
GTCCGAATACCCCATATGACACCCTATATAATACCTGACGCGGAGTCACCTAGTGCAG | 3530 fluorescence intensity (a.u.)
TACAGGAACAGCAATAGCAGTAGTAAATACTAGCTCAGGCCGGAGTCACCTAGTGCAG | 3380 fluorescence intensity (a.u.)
CTTTAATATGTGGACTCATGATTCTTACGTGTCTGTGACACGGAGTCACCTAGTGCAG | 31500 fluorescence intensity (a.u.)

The list goes on.

| Sequence | binding signal |
| --- | --- |
| CCGTTTAGTTACACCGTCACTCGCAAATCCGATGGCGTGTCGGAGTCACCTAGTGCAG | 5260 fluorescence intensity (a.u.) |
| CTCTGACGTAAGATATATGTAACTCAGGAGAGACATCCTACGGAGTCACCTAGTGCAG | 25900 fluorescence intensity (a.u.) |
| AGCCCGCGCCGGAGATCTTCGAGCTCTTCGACGACGTCATCGGAGTCACCTAGTGCAG | 4930 fluorescence intensity (a.u.) |
| CGCAAGGGAGAATAGGGGTGTTGAGAGGAGGGGCGACAGGCGGAGTCACCTAGTGCAG | 3150 fluorescence intensity (a.u.) |
| TGCCATTCGGGTTATTGGGCCGTTTGCGAAATTTGTGAAGCGGAGTCACCTAGTGCAG | 28000 fluorescence intensity (a.u.) |
| GCCTCTCAATCTGCACGTCCACATCGGTTCTCGGTGCCCGCGGAGTCACCTAGTGCAG | 5420 fluorescence intensity (a.u.) |
| AAAAGAATGGTGCACTAGTATACGTGGCTACTCCACAGTGCGGAGTCACCTAGTGCAG | 5920 fluorescence intensity (a.u.) |
| GACTGCAGTAGTGGCGATTACGTCCACGTCACTGCACGCTCGGAGTCACCTAGTGCAG | 17300 fluorescence intensity (a.u.) |
| TATATGAGGTGGAAGGATAGGTTTATTTATCATTAATCCTCGGAGTCACCTAGTGCAG | 3880 fluorescence intensity (a.u.) |
| CCCGCAGCTCAACCTGGCTCGCACCGCCATCCCCACGACCCGGAGTCACCTAGTGCAG | 31400 fluorescence intensity (a.u.) |
| ATTTCCATGCTTTACGTGGATCTAATTAGATTGCTACCACCGGAGTCACCTAGTGCAG | 5540 fluorescence intensity (a.u.) |
| CCCACCGAGGCGCCGTCGCTGCCCTGTCCCACCTCACCCCCGGAGTCACCTAGTGCAG | 3160 fluorescence intensity (a.u.) |
| CGTCGATTAATTTCCCTGGTAAATACGAAATGTTCATGGTCGGAGTCACCTAGTGCAG | 39600 fluorescence intensity (a.u.) |
| ATGCATCTAAGCATATTAGCTATATACCACATCATTTTCACGGAGTCACCTAGTGCAG | 4780 fluorescence intensity (a.u.) |
| CACCGCCCCATCGATCTCCGCCCGGCCGCCACCAATCTCGCGGAGTCACCTAGTGCAG | 3310 fluorescence intensity (a.u.) |
| GCGCGTTGACGTAACCACCTCGTCCTCATCATCATCCTCTCGGAGTCACCTAGTGCAG | 6020 fluorescence intensity (a.u.) |
| CTTACTAACACTGATGTGTCATGCTACGAGTGCATCTAGGCGGAGTCACCTAGTGCAG | 5070 fluorescence intensity (a.u.) |
| TGGAGAGGGAAGGAGAGAGGAAGAGAGGTGGAGAGGGGAGCGGAGTCACCTAGTGCAG | 4030 fluorescence intensity (a.u.) |
| CTATCCTGGATCCATCGATGGATCATCATCAGACAGCATGCGGAGTCACCTAGTGCAG | 3370 fluorescence intensity (a.u.) |
| TATTGTGATGTCTTATTGACATGGCACCATGGACACTACTCGGAGTCACCTAGTGCAG | 3900 fluorescence intensity (a.u.) |
| TGGCCAAGGCCCACATAGCAACGCATATGCATCATTCATGCGGAGTCACCTAGTGCAG | 3220 fluorescence intensity (a.u.) |
